In all, about 330,000 compounds went through this assay and about 7,700 (2.3%) were called active. Inconclusive results, whose numbers are uncertain, are shown with a selection of clear calls. Calls come from the whole dose curve; as a rule, active = well fitted inhibition curve with a large enough effect; inconclusive = small, poorly fitted or top-dose-only effect, or effect the other way; inactive = flat fitted curve, though single readings scatter. A potency beside an inconclusive call is a rough fit, not a confirmed value.
Test: qHTS screen for small molecules that inhibit ELG1-dependent DNA repair in human embryonic kidney (HEK293T) cells expressing luciferase-tagged ELG1; note: nearly all actives have a fitted effect of over 55% in size
Conditions: HEK293T ELG1-luciferase reporter, luminescence, 16 h, DNA damage induced by 5-fluorouridine; activity change, negative = inhibition: at 46.1 µM (top of the series)
In short: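 Quantitative HTS, concentration-response format. 2,000 cells/well co-treated with 5-fluorouridine and compound, 16 hr in 5% CO2 at 37 °C; ONE-Glo luminescence read after 30 min.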
% is set by controls: 0 for no effect and ±100 for the full control effect; potency is the fitted concentration of half-maximal effect.

SMILES	Potency	activity change, negative = inhibition
Cc1ccc(NC(=O)C2CCC(CNc3c(N4CCC(C)CC4)c(=O)c3=O)CC2)cc1F (configuration not stated)	inconclusive: 2.31 µM [inhibitor, full curve]	–
CN1CCN(C(=S)c2cn(Cc3ccc(F)cc3)c3ccccc23)CC1	–	inactive: -0.791%
CC(/C=C/c1ccccc1)=N\NC(=S)NC(C)C	inconclusive: 0.517 µM [inhibitor, partial curve, poor fit]	–
COn1c(C)c(C)c2c3nonc3ccc21	–	inactive: 0%
O=C(NCc1ccc2c(c1)OCO2)C1CCC(CNS(=O)(=O)c2cccc3nsnc23)CC1 (configuration not stated)	inconclusive: 20.6 µM [inhibitor, single point]	–
COc1ccccc1-c1nc(-c2ccccc2)nc(N2CCN(C)CC2)c1C#N	active: 20.6 µM	–
Cc1ccccc1NC(=O)c1ccccc1NC(=O)Cc1cccc2ccccc12	inconclusive: 29.1 µM [activator, single point]	–
CCOC(=O)C(=O)CC(=O)c1ccc2c(c1)OCCO2	inconclusive: 16.4 µM [activator, partial curve]	–
COc1ccc(OC)c(S(=O)(=O)Nc2ccc(C(N)=O)cc2)c1	–	inactive: -0.0666%
COc1ccc(NC(=O)CCNC(=O)Cn2cnc3sc4c(c3c2=O)CCCC4)c(OC)c1	inconclusive: 3.66 µM [inhibitor, partial curve]	–
COc1c(Cl)cc(C(=O)Nc2ccccc2C(=O)O)cc1Cl	inconclusive: 20.6 µM [activator, partial curve]	–
Cn1c(CSCc2ccc(F)cc2)nnc1SCC(=O)N1CCN(c2ccccc2)CC1	inconclusive: 13 µM [inhibitor, partial curve]	–
C/C(=N\NC(=O)C1(C)CC1(Br)Br)c1ccc([N+](=O)[O-])cc1 (configuration not stated)	inconclusive: 18.3 µM [activator, partial curve]	–
COc1ccc(CCNC(=O)Cn2nnc(-c3ccc(OC)c(OC)c3)n2)cc1OC	inconclusive: 23.1 µM [inhibitor, single point]	–
Nc1cccc(-c2cc(-c3ccccc3)nc(-c3cccc(N)c3)n2)c1	inconclusive: 32.6 µM [inhibitor, single point]	–
CN(Cc1ccsc1)C(=O)Cn1cc(Br)ccc1=O	inconclusive: 20.6 µM [activator, partial curve]	–
CCN1CCN(S(=O)(=O)c2ccc(Cl)c(C(=O)N(C)CCOc3ccc(Cl)cc3)c2)CC1	inconclusive: 20.6 µM [inhibitor, single point]	–
COc1ccc(OCC(=O)Nc2ccccc2N2CCCCC2)cc1	inconclusive: 3.26 µM [inhibitor, partial curve, poor fit]	–
COc1ccccc1Oc1nnnn1-c1ccc(C(N)=O)cc1	–	inactive: -1.38%
Cc1ccc(S(=O)(=O)N2CCN(C(=O)COC(=O)c3c(C)noc3C)CC2)c(C)c1	inconclusive: 29.1 µM [inhibitor, single point]	–
N#C/C(=C/c1ccc(-c2ccccc2[N+](=O)[O-])o1)C(N)=O	–	inactive: 2.27%
CCOC(=O)c1ccc(CC(=O)c2ccc(O)c(O)c2O)o1	–	inactive: 3.33%
CC(C)Oc1ccc(C(=O)Nc2nnc(C3=COCCO3)o2)cc1	inconclusive: 14.6 µM [activator, single point]	–
NC(=O)c1nsc(C(=O)N(c2cccc(F)c2)C(C(=O)NC2CCCC2)c2ccco2)c1N (configuration not stated)	inconclusive: 29.1 µM [activator, single point]	–

A second format for two compounds above.
C/C(=N\NC(=O)C1(C)CC1(Br)Br)c1ccc([N+](=O)[O-])cc1 (configuration not stated)
  Potency: inconclusive: 18.3 µM [activator, partial curve]
COc1ccc(CCNC(=O)Cn2nnc(-c3ccc(OC)c(OC)c3)n2)cc1OC
  Potency: inconclusive: 23.1 µM [inhibitor, single point]

(listing goes on)

SMILES	Potency	activity change, negative = inhibition
CSCC[C@H](NC(=O)C1=NN(c2c(F)c(F)cc(F)c2F)C(=O)CC1)c1nc2ccccc2[nH]1	–	inactive: -0.447%
CCn1c(C)cc(C(=O)CSc2nnc(-c3ccco3)o2)c1C	inconclusive: 29.1 µM [activator, single point]	–
Cc1cccc(NC(=O)NNC(=O)COc2ccc(Cl)cc2)c1	–	inactive: 12.7%
CC1Cc2ccccc2N1C(=O)CN1CCN(S(=O)(=O)c2cccs2)CC1 (configuration not stated)	–	inactive: -5.87%
CC(C)(C)C(=O)Nc1sc2c(c1C#N)CCCCC2	inconclusive: 16.4 µM [activator, single point]	–
CSc1nc(/C=C2\C=Nc3ccccc32)c(O)n1C	inconclusive: 18.4 µM [activator, single point]	–
Cc1ccc2c(c1)-n1c(nc3ccccc3c1=O)C(Cc1ccc(O)cc1)NC2=O (configuration not stated)	inconclusive: 16.4 µM [activator, partial curve, poor fit]	–
Cc1ccsc1C(=O)Nc1ccccc1N1CCCC1	–	inactive: 12.7%
C/C(N)=C(/C#N)C(=O)CSc1nc2ccccc2c(=O)n1CCCO	–	inactive: -1.94%
CCN1C(=O)c2ccccc2S(=O)c2ccc(C(=O)N3CCN(C(=O)c4ccco4)CC3)cc21 (configuration not stated)	inconclusive: 16.4 µM [activator, partial curve]	–
CCOC(=O)c1c(C)[nH]c(C(=O)COC(=O)[C@H](C)NC(=O)c2ccccc2Cl)c1C	inconclusive: 16.4 µM [activator, partial curve]	–
Cc1ccc(-c2nnn(CCC(=O)N3CCCCC3C)n2)cc1 (configuration not stated)	inconclusive: 4.11 µM [activator, partial curve]	–
Cc1c(C(=O)NCCCN2CCOCC2)sc2ncnc(N3CCN(c4ccccc4)CC3)c12	inconclusive: 23.1 µM [inhibitor, single point]	–
CCn1cc(Cl)c(C(=O)Nc2cccc(CN3CCOCC3)c2)n1	–	inactive: 13.3%
CCOC(=O)c1ccc(NCn2c(=O)oc3ccccc32)cc1	inconclusive: 29.1 µM [activator, partial curve, poor fit]	–
CCOc1ccccc1OCC(=O)Nc1cccc(S(=O)(=O)NC2=NCCCCC2)c1	inconclusive: 9.2 µM [inhibitor, partial curve, poor fit]	–
O=C(O)/C(=C\c1ccc(Cl)c([N+](=O)[O-])c1)c1ccc(S(=O)(=O)N2CCCC2)s1	–	inactive: 2.52%
Cc1ccc(NC(=O)C(=O)NCCCN2CCCC2=O)cc1	inconclusive: 1.16 µM [activator, single point]	–
CCC(CC)NC(=O)C1CCN(c2ccc(S(=O)(=O)N3CCOCC3)cc2[N+](=O)[O-])CC1	–	inactive: -0.485%
CN(C)C(=O)NC(Nc1ccc(Cl)cc1Cl)C(Cl)(Cl)Cl (configuration not stated)	–	inactive: 2.14%
Cn1c(=O)cc(SCC(=O)N2CCOCC2)c2ccc(Cl)cc21	inconclusive: 9.2 µM [activator, partial curve]	–
CCCC[C@@H]1CNC(=O)C(=O)N1CCCc1cc(OC)c(OC)c(OC)c1	inconclusive: 0.58 µM [inhibitor, single point]	–
N/N=C1\CCCc2c1[nH]c1ccc([N+](=O)[O-])cc21	inconclusive: 20.6 µM [inhibitor, partial curve, poor fit]	–
CC(=O)c1ccn(S(=O)(=O)c2ccc(Cl)cc2)c1	–	inactive: 23.9%

SMILES	Potency	activity change, negative = inhibition
Cc1nc(-c2cccc(NC(=O)COc3ccc(Cl)cc3)c2)cs1	–	inactive: -1.48%
COC(=O)c1ccc(CN2CCCC(C(=O)Nc3cccc(-n4cnnn4)c3)C2)cc1 (configuration not stated)	active: 16.4 µM	–
Cc1nnc(-c2cccc(Br)c2)c2cn(-c3cccc(Br)c3)nc12	inconclusive: 29.1 µM [inhibitor, single point]	–
Cc1cccn2c(=O)c3cc(C(=O)NC4CCCC4)c(=N)n(C4CCCC4)c3nc12	inconclusive: 20.6 µM [inhibitor, partial curve]	–
Cc1ccc(C(=O)CSc2nnc(COc3cccc(C)c3)o2)cc1	–	inactive: 1.3%
O=C(COc1ccc(Cl)cc1)Nc1ccc2c(c1)CCC2	inconclusive: 16.4 µM [activator, partial curve]	–
COc1ccccc1OCCn1cc(/C=N/NC(N)=S)c2ccccc21	active: 18.3 µM	–
O=C(NCC1CCCO1)c1ccc(CSCc2cccc(F)c2)o1 (configuration not stated)	–	inactive: -9.24%
O=C(NC1=NCCS1)c1ccncc1	–	inactive: -1.58%
CC(C)c1nnc(NC(=O)C2CCN(C(=O)Nc3ccc(Cl)cc3)CC2)s1	–	inactive: -6.04%
CCOCCCNC(=O)c1ccc2c(=O)n(Cc3ccc(OC)cc3)c(=O)[nH]c2c1	inconclusive: 25.9 µM [inhibitor, single point]	–
Cc1nn(-c2ccccc2)c(C)c1/C=N/NC(=O)CSc1nc2ccccc2c(=O)n1-c1ccc(Br)cc1	–	inactive: -19.1%
COCCNc1ncnc2c1cnn2Cc1ccc(Cl)cc1	inconclusive: 29.1 µM [inhibitor, single point]	–
O=C(c1ccc([N+](=O)[O-])s1)N1CCN(c2ccccc2)CC1	inconclusive: 25.9 µM [inhibitor, single point]	–
COc1ccc(CNC(=O)c2ccc(C)o2)cc1	inconclusive: 18.4 µM [activator, single point]	–
CCCN1CCN(C(=O)Cn2nc(CC)n3c(cc4sccc43)c2=O)CC1	inconclusive: 14.6 µM [activator, partial curve, poor fit]	–
O=C(N/N=C/c1ccc(N2CCCCC2)o1)C(O)(c1ccccc1)c1ccccc1	–	inactive: 4.79%
Cc1cc(C)c2[nH]c(C(=O)Nc3ccc4c(c3)OCO4)cc2c1	–	inactive: -2.02%
Cc1sc2nc(C(C)C)nc(SCC(=O)N3CCOCC3)c2c1C	inconclusive: 23.1 µM [inhibitor, partial curve, poor fit]	–
CCCN1CCN(C(=O)c2cc(COc3ccc4ncccc4c3)on2)CC1	–	inactive: -27.5%
Cc1ccc(S(=O)(=O)N(C)CC(=O)Oc2ccc(-c3nnco3)cc2)cc1	inconclusive: 0.231 µM [inhibitor, single point]	–
Cc1ccc(S(=O)(=O)N2CCN(C(=S)NCc3ccc4c(c3)OCO4)CC2)cc1	inconclusive: 23.1 µM [inhibitor, single point]	–
Clc1ccc(N=c2ssnc2Cl)cc1	active: 16.4 µM	–
CC1(C)C(c2ccco2)=[N+]([O-])C2(CCCCC2=O)N1O (configuration not stated)	–	inactive: 5.65%

From PubChem BioAssay AID504467 (National Center for Advancing Translational Sciences (NCATS), 2011)
